# Data as given in PubChem BioAssay AID1508588 (Peter MacCallum Cancer Centre, 2020)
# Aim: 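Knock-downs boosting vemurafenib effects on melanoma cell growth or lactate release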 (primary screen)
# Cell system: human WM266.4 melanoma cells (BRAF V600 mutant)
# Knock-down reagent: siRNA pool against human genes, 40 nM
# Timing: 96 h from transfection to read-out
# Treatment: vemurafenib 300 nM (about IC25), added 48 h after transfection, for 48 h; comparison arm got DMSO vehicle only
# Measured: 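Cell gain (DAPI nuclei at end minus before drug, mean of two replicates) and medium lactate by absorbance per cell, both as ratio to non-targeting siRNA, also grouped into fold-change classes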
# Scale: cell gain with vemurafenib: higher = more cell gain than with non-targeting siRNA; lactate per cell with vemurafenib: higher = more lactate made per cell
# Call rule: 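a knock-down counts as enhancing when its fold-change classes with vehicle and with vemurafenib, taken together, show a stronger drug effect on cell gain or lactate per cell; exact class pairs not stated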
# Meaning of the calls: active = enhances vemurafenib effect; inactive = no enhancement seen
# This is one part, drawn at random, of about 18,000 reagents tested. Of all reagents, 790 (4.4%) were called active. 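Calls rest on a combination of fold-change classes in drug and vehicle arms, not all shown here.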
Target gene,cell gain with vemurafenib,lactate per cell with vemurafenib,activity call
OR5K2,-0.01,1.46,inactive
ELAVL3,0.04,1.55,inactive
AADACL2,0.42,1.22,inactive
TFEC,1.17,0.56,inactive
CHCHD6,1.12,0.74,inactive
MYLK2,-0.04,1.42,inactive
RNF113A,0.87,0.5,inactive
SLCO3A1,0.23,1.58,inactive
DNAJC9,0.76,1.08,inactive
PPARGC1B,0.38,1.19,inactive
ST7L,0.39,0.55,active
CHPF2,0.5,0.86,inactive
ZDHHC9,0.69,0.24,inactive
TNFRSF11A,0.68,1.14,inactive
ELL,0.65,0.92,inactive
NSL1,0.77,1.12,inactive
USP13,0.98,1.1,inactive
MAP4K4,1.43,0.56,inactive
ANKRD17,0.26,1.56,inactive
SPCS3,0.49,0.24,inactive
REG4,0.7,1.21,inactive
TRMT2B,0.37,0.86,inactive
FAM120C,0.57,1.26,inactive
KRTAP5-3,0.53,0.38,inactive
SNX12,0.68,0.85,inactive
MMP2,0.86,0.55,inactive
USP2,-0.01,0.14,active
DOK6,0.53,1.25,inactive
SGCA,0.32,1.17,inactive
CFAP61,0.82,0.55,inactive
SSNA1,0.52,1.11,inactive
PNPLA1,0.76,0.88,inactive
POLRMT,0.57,1.26,inactive
DPF2,0.53,0.98,inactive
BRS3,0.82,0.79,inactive
NR2F6,0.6,1.48,inactive
B3GNT7,0.6,1.44,inactive
APOBEC3C,0.41,1.51,inactive
AUH,0.59,0.96,inactive
SPATA33,0.53,0.68,inactive
DYNC2I1,0.85,1.1,inactive
COL23A1,0.35,0.64,active
MEP1A,0.8,0.24,inactive
CEP170,0.49,0.22,inactive
NOD2,0.36,0.67,inactive
HNRNPL,0.26,2.23,inactive
GET4,0.63,0.59,inactive
SYTL4,1.12,0.8,inactive
CLDND2,0.14,1.56,inactive
PPP1R42,0.61,0.9,inactive
SEPHS2,0.55,0.54,inactive
PTH2,0.37,0.54,inactive
THAP6,0.24,0.84,inactive
PUS7,0.49,1.26,inactive
FAM110D,0.42,1.49,inactive
KIZ,0.38,0.4,inactive
WASHC4,0.07,1.12,inactive
ANKRD10,0.83,0.76,inactive
NMU,0.57,0.77,inactive
C8orf34,0.75,1.03,inactive
MTAP,0.7,0.5,inactive
CKAP2,1.1,0.94,inactive
TMEM26,0.89,0.44,inactive
AKT1,0.82,1.7,inactive
THRSP,0.4,0.36,active
EXOSC9,0.22,1.81,inactive
LEKR1,0.12,2.21,inactive
N4BP1,0.71,0.48,active
CAV2,0.28,2.2,inactive
GNRH2,0.58,1,inactive
CENPX,0.76,0.87,inactive
CNTRL,0.37,1.42,inactive
PITPNC1,0.45,0.38,active
POLR3D,0.85,0.88,inactive
VPS13A,0.64,1.02,inactive
LAX1,-0.13,3.45,inactive
LKAAEAR1,0.24,1.38,inactive
IFI44L,0.46,1.13,inactive
ANKRD37,0.2,1.12,inactive
C2orf78,0.51,1.4,inactive
PTK6,0.92,0.96,inactive
OTUD7B,1.01,0.86,inactive
SIRT6,0.43,0.68,active
SIKE1,0.4,1.19,inactive
